Experimental data reported in PMC12716022, “Synthesis, In Silico, and Biological Evaluation of Non‐Hydroxamate Benzoic Acid–Based Derivatives as Potential Histone Deacetylase Inhibitors (HDACi)” (Chemistry & Biodiversity, 2025).

What was measured:
[1] = MTT in vitro cytotoxicity assay, normal MCF‐10A; type: cell-based; conditions: MCF-10A normal mammary cells, 72 h treatment, normal human breast cells, mean ± SD
Protocol: (§1) The following human cell lines obtained from American Type Culture Collection (ATCC) were used to elucidate the antiproliferative effect of the newly synthesized compounds: HepG2 (HB‐8065; hepatocellular carcinoma), MCF‐7 (HTB‐22; breast cancer), K562 (CCL‐243; myeloid leukemia), and MCF‐10A (CRL‐10317; normal mammary cells). MCF‐7 and K562 cells were maintained in RPMI‐1640 media (Capricorn, Germany), whereas HepG2 cells were grown in high‐glucose DMEM (Capricorn, Germany). All media used were supplemented with 10% fetal bovine serum (Gibco, USA), 1% L‐glutamine (Gibco, USA), and 1% penicillin/streptomycin (Gibco, USA). MCF‐10A cells were cultured in DMEM/F12 media (Capricorn, Germany) supplemented with 5% horse serum (Gibco, USA), epidermal growth factor (EGF; Sigma, USA), insulin (Sigma, USA), hydrocortisone (Sigma, USA), and cholera toxin (Sigma, USA). Cells were maintained in humidified incubator with 5% CO2 at 37°C.
(§2) To evaluate the effects of the compounds on cell proliferation and determine their inhibitory concentration (IC50), eight different concentrations (0.03, 0.1, 0.3, 1, 3, 10, 30, and 100 µM) of each compound were tested. Cells were seeded at a density of 5 × 10^3 cells per well in a 96‐well plate and incubated for 24 h to allow cell attachment. […]

MCF‐7 = experiment: MTT in vitro cytotoxicity assay, MCF‐7; type: cell-based, human; conditions: 72 h treatment, mean ± SD of three experiments in triplicates
Protocol: as §1, §2

`O=C(CCCCCCC(=O)Nc1ccccc1)NO` [SAHA, vorinostat, reference compound] gave an IC50 at 72 h [1] of 270 ± 29.6 µM, an IC50 (MCF‐7) of 20.3 ± 2.2 µM and an IC50 (MCF‐7; Homo sapiens, MCF7, 72 h) of 39.2 µM.
